Assay [1] concerns the target T1, GST-VCF2 isoform 3 (human) (UniProt Q5XKR9).
T1 sequence: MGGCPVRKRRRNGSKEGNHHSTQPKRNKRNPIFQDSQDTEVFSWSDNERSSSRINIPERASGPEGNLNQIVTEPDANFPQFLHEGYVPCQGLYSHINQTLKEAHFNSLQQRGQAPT
In words: pull-down; 0.76 nmole GST fusion immobilised on 10 µl glutathione sepharose beads; 0.2 nmole (monomer) p97 or 0.5 nmole His6-FAF1 (or other purified p97 cofactors) in TBS, 2 mM DTT, 1% Triton X-100; SDS-PAGE with Coomassie or 2,2,2-trichloroethanol staining, FAF1 immunoblot; both purified. (In general: A western blot detects proteins with antibodies after separation by electrophoresis.)

For assay [2], the target named is FLAG-VCF1 isoform 5 (human). In words: co-IP; anti-FLAG (M2 agarose) immunoprecipitation from lysates of HEK293T cells ectopically expressing FLAG-VCF1/2; lysis buffer 50 mM Tris-HCl pH 7.6, 150 mM NaCl, 2 mM MgCl2, 1% NP40, 10% glycerol, 1 mM DTT; overnight at 4°C; immunoblot of endogenous p97 and cofactors.

Results are given in words; binding and its absence hold for the method and conditions named. Binding calls can cover weak binding; strength is not graded here. For some of these results: Tags and fused reporters may be left off the sequences shown. For some of these results: In cells and extracts the contact can be indirect.

As to “p97 ΔN variant (lacking the N domain) (domain or fragment)”, the binding entry in assay [1] is “no binding (tested: 0.2 nmole (monomer) p97)”.
With “p97 ND1 variant (lacking the D2 ATPase domain) (domain or fragment)”, the binding result in assay [1] is reported as “binds”.
With p97 N domain (domain or fragment), in assay [1], the binding result is “binds”.

B1: UBXN7, endogenous (protein, UniProt O94888 1-489)
chain: MAAHGGSAASSALKGLIQQFTTITGASESVGKHMLEACNNNLEMAVTMFLDGGGIAEEPSTSSASVSTVRPHTEEEVRAPIPQKQEILVEPEPLFGAPKRRRPARSIFDGFRDFQTETIRQEQELRNGGAIDKKLTTLADLFRPPIDLMHKGSFETAKECGQMQNKWLMINIQNVQDFACQCLNRDVWSNEAVKNIIREHFIFWQVYHDSEEGQRYIQFYKLGDFPYVSILDPRTGQKLVEWHQLDVSSFLDQVTGFLGEHGQLDGLSSSPPKKCARSESLIDASEDSQLEAAIRASLQETHFDSTQTKQDSRSDEESESELFSGSEEFISVCGSDEEEEVENLAKSRKSPHKDLGHRKEENRRPLTEPPVRTDPGTATNHQGLPAVDSEILEMPPEKADGVVEGIDVNGPKAQLMLRYPDGKREQITLPEQAKLLALVKHVQSKGYPNERFELLTNFPRRKLSHLDYDITLQEAGLCPQETVFVQERN
B1: the binding result in assay [2] is “binds”.
